Here are results for 28 molecules from the supplement of paper PMC12578635.

± gives the standard deviation of the averaged measurements. The list shows a part of the results. Most values come without repeats; read them as rough.

This experiment deals with RAW 264.7 macrophages infected with S. aureus JE2-lux. Briefly: host macrophage viability (CellTiter-Fluor) relative to DMSO vehicle; higher = more viable host cells. Conditions: 10 µM; treatment time 4 h; gentamicin 50 µg/ml.
`Cc1ccc(-c2c(C(F)(F)F)nn3c(NCc4cccnc4)cc(C)nc23)cc1`: the host macrophage viability worked out at 108%.
To `Cc1ccc(NC(=O)CN(C2=NC3CS(=O)(=O)CC3S2)c2ccc(C(C)C)cc2)cc1` (stereo not drawn) belongs 131%; to `COc1cccc2sc(NC(=O)c3cccc(C(F)(F)F)c3)nc12`, 111%.
To `Cc1ccc2sc(NNC(=O)c3nc4ccccc4s3)nc2c1C` belongs 138 ± 22%; to `COC(=O)C1Sc2[nH]c(=O)sc2C(c2cccc([N+](=O)[O-])c2)C1C(=O)OC` (stereo not drawn), 117%.
On to `CCOc1ccccc1C1C(C#N)=C(N)Oc2[nH]nc(-c3ccccc3)c21` (stereo not drawn), for which the host macrophage viability stood at 101 ± 11%.
The result for `CN1CCN(Nc2ncnc(N)c2[N+](=O)[O-])CC1` reads 119%; that for `CC1CCc2c(sc3ncnc(SCC(=O)Nc4ccc(C(=O)O)cc4)c23)C1` (stereo not drawn), 104%.
To `CCOC(=O)c1ccccc1NC(=O)CSc1nc(=O)[nH]c(C)c1C(=O)OCC` belongs 118%; to `CNC(=S)N(CCc1c(C)[nH]c2ccc(C)cc12)Cc1cccnc1`, 117%; to `O=C(CN1CCC2(CC1)NC(=O)N(Cc1ccc(Cl)cc1)C2=O)Nc1cccc(F)c1`, 115%.
To `Cc1cc(NC(=O)Cn2c(C)cc(C)c(C#N)c2=O)[nH]n1` belongs 109%.
In the case of `COc1ccc([N+](=O)[O-])cc1NC(=O)c1c[nH]c(=O)n(-c2ccc(OC)c(OC)c2)c1=O`, the host macrophage viability was determined as 98.8 ± 2.5%.
`Cc1ccc(Nc2nc(NCCOCCO)nc(N)c2[N+](=O)[O-])cc1C`: the host macrophage viability is 88.5%.
The result for `Cc1ccc(-n2nc(C)c3c(C)cc(=O)[nH]c32)cc1C` reads 91.6%.
The result for `O=C1C2C3CC(C2C(=O)N1c1ccc(Cl)cc1)C1C(c2cccnc2)c2sc(=O)[nH]c2SC31` (stereo not drawn) reads 112%.
The result for `CSc1ccccc1NS(=O)(=O)c1cc2c3c(c1)CCC(=O)N3CCC2` reads 105%.
Regarding `COC(=O)c1ccc(NC(=O)CSc2ncc(CO)n2Cc2ccc(F)cc2)cc1`, the host macrophage viability amounted to 113%.
To `Cc1cc(C)c2nc(NC(=O)CSc3ccccc3)sc2c1` belongs 115%; to `O=C1C(NS(=O)(=O)c2ccccc2)=C/C(=N\S(=O)(=O)c2ccc(F)cc2)c2ccccc21`, 90.5%; to `CCOc1ccccc1Nc1ncnc2c1c(C)c(C)n2-c1cccc(F)c1`, 117%.
`CNc1n[nH]c(N)c1-c1nc(-c2ccccc2C)no1`: the host macrophage viability was 113%.
To `CC1=NN(Cc2ccccc2C)c2nc3c(c(=O)n(C)c(=O)n3C)n2C1C` (stereo not drawn) belongs 108%; to `COc1cccc(C2C(C(=O)c3ccncc3)=C(O)C(=O)N2CCCN2CCOCC2)c1` (stereo not drawn), 102%.
To `O=C(Nn1c(C2CCC2)nc2ccccc2c1=O)c1ccc(-c2ccccc2)cc1` belongs 116%; to `CC(=O)Nc1cc2nc(C)n(Cc3ccccc3[N+](=O)[O-])c2nc1C`, 110%.
To `Cc1ccc(C)c(NS(=O)(=O)c2ccc3[nH]c(=O)cc(C)c3c2)c1` belongs 131%; to `Cc1ccnc(N2CCCC(C(=O)NCc3ccc(Cl)cc3)C2)n1` (stereo not drawn), 129%.
